# Assay results as given in paper PMC13426208.
# By UniProt entry, the sequences of proteins in these tests, tags left out.
# UniProt Q9UPQ3: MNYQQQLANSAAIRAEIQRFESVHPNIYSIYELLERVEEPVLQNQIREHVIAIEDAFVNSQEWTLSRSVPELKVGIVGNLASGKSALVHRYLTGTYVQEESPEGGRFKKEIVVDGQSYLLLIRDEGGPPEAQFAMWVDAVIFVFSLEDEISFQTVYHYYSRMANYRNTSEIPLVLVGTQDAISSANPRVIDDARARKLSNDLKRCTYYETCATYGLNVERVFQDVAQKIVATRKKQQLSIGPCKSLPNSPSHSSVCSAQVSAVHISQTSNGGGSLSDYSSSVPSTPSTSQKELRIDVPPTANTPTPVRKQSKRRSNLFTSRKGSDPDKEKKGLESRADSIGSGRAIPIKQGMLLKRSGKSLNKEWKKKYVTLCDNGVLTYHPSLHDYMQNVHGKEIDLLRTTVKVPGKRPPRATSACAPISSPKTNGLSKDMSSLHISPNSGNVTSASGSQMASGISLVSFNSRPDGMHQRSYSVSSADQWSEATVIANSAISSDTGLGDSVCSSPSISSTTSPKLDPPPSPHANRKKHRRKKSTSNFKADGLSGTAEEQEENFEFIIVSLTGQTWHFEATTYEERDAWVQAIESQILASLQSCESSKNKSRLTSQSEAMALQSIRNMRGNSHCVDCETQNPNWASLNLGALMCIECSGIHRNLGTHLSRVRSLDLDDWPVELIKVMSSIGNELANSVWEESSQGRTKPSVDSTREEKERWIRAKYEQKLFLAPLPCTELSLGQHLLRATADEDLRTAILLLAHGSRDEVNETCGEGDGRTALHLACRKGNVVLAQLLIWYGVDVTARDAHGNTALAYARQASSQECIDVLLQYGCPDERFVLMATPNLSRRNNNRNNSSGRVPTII
# UniProt Q96P47: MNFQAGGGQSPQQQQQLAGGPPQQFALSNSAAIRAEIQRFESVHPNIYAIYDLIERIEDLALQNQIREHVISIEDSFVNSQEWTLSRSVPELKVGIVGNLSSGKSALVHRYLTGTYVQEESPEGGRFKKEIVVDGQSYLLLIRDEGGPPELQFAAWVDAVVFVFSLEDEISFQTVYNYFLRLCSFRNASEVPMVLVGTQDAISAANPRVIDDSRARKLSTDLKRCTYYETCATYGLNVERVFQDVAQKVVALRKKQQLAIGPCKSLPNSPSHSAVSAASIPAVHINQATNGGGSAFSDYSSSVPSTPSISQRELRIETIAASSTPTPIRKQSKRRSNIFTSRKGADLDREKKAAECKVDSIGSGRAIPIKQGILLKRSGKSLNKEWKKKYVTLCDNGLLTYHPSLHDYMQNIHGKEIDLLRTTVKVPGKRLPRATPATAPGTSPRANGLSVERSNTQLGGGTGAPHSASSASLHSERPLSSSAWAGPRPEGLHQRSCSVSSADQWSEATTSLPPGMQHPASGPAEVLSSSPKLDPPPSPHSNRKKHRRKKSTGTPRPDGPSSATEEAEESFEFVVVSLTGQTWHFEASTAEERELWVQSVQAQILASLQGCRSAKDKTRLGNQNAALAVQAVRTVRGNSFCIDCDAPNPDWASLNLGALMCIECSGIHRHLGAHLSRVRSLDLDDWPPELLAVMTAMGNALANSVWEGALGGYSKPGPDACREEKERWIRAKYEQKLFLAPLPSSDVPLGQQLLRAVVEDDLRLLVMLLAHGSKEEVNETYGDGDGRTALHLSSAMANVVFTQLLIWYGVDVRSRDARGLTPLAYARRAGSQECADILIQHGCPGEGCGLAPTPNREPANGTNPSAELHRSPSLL
# UniProt O00139: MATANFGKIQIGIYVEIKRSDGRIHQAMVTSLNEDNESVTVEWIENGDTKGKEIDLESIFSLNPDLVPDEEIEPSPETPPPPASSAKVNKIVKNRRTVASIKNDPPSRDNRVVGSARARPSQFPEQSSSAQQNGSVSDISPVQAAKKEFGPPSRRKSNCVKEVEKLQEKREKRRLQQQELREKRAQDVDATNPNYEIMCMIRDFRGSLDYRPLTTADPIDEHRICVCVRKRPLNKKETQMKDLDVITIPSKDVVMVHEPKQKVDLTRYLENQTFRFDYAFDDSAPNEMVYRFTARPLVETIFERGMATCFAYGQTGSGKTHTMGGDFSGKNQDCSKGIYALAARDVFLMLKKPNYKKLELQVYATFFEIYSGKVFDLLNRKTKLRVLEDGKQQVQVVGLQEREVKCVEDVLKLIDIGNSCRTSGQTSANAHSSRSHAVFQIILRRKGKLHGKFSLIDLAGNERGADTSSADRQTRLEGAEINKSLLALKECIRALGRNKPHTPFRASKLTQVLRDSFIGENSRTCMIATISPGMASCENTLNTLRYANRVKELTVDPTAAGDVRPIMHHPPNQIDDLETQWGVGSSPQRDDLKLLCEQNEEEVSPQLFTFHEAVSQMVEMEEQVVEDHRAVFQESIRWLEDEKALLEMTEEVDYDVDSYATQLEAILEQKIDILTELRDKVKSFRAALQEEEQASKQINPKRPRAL
# No constants are given. Whether binding was seen depends on the method and setting. Binding seen in cells or lysates may run through a third protein. A yes stands for co-enrichment or nearness to the bait. Other partners may have been found.
# B1: THUMPD1 (protein, UniProt Q9NXG2 1-353)
# chain: MAAPAQQTTQPGGGKRKGKAQYVLAKRARRCDAGGPRQLEPGLQGILITCNMNERKCVEEAYSLLNEYGDDMYGPEKFTDKDQQPSGSEGEDDDAEAALKKEVGDIKASTEMRLRRFQSVESGANNVVFIRTLGIEPEKLVHHILQDMYKTKKKKTRVILRMLPISGTCKAFLEDMKKYAETFLEPWFKAPNKGTFQIVYKSRNNSHVNREEVIRELAGIVCTLNSENKVDLTNPQYTVVVEIIKAVCCLSVVKDYMLFRKYNLQEVVKSPKDPSQLNSKQGNGKEAKLESADKSDQNNTAEGKNNQQVPENTEELGQTKPTSNPQVVNEGGAKPELASQATEGSKSNENDFS
# B2: SPECC1 (protein, UniProt Q5M775 1-1068)
# chain: MRSAAKPWNPAIRAGGHGPDRVRPLPAASSGMKSSKSSTSLAFESRLSRLKRASSEDTLNKPGSTAASGVVRLKKTATAGAISELTESRLRSGTGAFTTTKRTGIPAPREFSVTVSRERSVPRGPSNPRKSVSSPTSSNTPTPTKHLRTPSTKPKQENEGGEKAALESQVRELLAEAKAKDSEINRLRSELKKYKEKRTLNAEGTDALGPNVDGTSVSPGDTEPMIRALEEKNKNFQKELSDLEEENRVLKEKLIYLEHSPNSEGAASHTGDSSCPTSITQESSFGSPTGNQMSSDIDEYKKNIHGNALRTSGSSSSDVTKASLSPDASDFEHITAETPSRPLSSTSNPFKSSKCSTAGSSPNSVSELSLASLTEKIQKMEENHHSTAEELQATLQELSDQQQMVQELTAENEKLVDEKTILETSFHQHRERAEQLSQENEKLMNLLQERVKNEEPTTQEGKIIELEQKCTGILEQGRFEREKLLNIQQQLTCSLRKVEEENQGALEMIKRLKEENEKLNEFLELERHNNNMMAKTLEECRVTLEGLKMENGSLKSHLQGEKQKATEASAVEQTAESCEVQEMLKVARAEKDLLELSCNELRQELLKANGEIKHVSSLLAKVEKDYSYLKEICDHQAEQLSRTSLKLQEKASESDAEIKDMKETIFELEDQVEQHRAVKLHNNQLISELESSVIKLEEQKSDLERQLKTLTKQMKEETEEWRRFQADLQTAVVVANDIKCEAQQELRTVKRKLLEEEEKNARLQKELGDVQGHGRVVTSRAAPPPVDEEPESSEVDAAGRWPGVCVSRTSPTPPESATTVKSLIKSFDLGRPGGAGQNISVHKTPRSPLSGIPVRTAPAAAVSPMQRHSTYSSVRPASRGVTQRLDLPDLPLSDILKGRTETLKPDPHLRKSPSLESLSRPPSLGFGDTRLLSASTRAWKPQSKLSVERKDPLAALAREYGGSKRNALLKWCQKKTQGYANIDITNFSSSWSDGLAFCALLHTYLPAHIPYQELNSQEKKRNLLLAFEAAESVGIKPSLELSEMLYTDRPDWQSVMQYVAQIYKYFET
# Biological target: T1, NAT10 acetyltransferase (human (endogenous in iPSC-derived neurons)) (UniProt Q9H0A0)
# T1 sequence: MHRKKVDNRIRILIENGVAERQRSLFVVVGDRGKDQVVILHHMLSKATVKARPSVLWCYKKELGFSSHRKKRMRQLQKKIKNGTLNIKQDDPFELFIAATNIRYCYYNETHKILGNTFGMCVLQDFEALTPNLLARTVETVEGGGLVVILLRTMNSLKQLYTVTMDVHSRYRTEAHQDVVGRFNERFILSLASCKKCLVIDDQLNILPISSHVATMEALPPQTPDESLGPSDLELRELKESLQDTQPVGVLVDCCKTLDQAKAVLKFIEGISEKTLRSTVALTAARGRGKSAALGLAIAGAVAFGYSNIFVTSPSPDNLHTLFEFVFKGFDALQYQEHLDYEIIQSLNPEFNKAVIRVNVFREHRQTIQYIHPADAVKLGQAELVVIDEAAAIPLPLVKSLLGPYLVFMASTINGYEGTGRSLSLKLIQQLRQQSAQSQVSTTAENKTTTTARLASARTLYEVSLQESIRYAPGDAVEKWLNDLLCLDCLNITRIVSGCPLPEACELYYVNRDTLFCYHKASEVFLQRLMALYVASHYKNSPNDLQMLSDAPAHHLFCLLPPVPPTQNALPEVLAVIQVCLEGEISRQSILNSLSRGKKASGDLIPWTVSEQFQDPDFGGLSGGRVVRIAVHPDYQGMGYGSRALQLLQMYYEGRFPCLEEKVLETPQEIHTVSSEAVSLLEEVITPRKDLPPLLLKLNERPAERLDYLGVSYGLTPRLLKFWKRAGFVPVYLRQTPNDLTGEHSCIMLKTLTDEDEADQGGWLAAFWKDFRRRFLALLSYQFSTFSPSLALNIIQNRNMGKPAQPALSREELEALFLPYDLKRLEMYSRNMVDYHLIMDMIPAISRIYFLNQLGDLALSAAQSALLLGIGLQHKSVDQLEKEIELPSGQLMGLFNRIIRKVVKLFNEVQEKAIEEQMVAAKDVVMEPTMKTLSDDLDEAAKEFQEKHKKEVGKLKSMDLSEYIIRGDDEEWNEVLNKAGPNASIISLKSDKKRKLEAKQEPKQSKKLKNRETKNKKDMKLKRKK
# Assay: affinity purification with mass spectrometry; NAT10 immunoprecipitated with a polyclonal anti-NAT10 antibody (Proteintech) from 1.4 mg of total protein extracted from iPSC-derived neurons (120 DIV; control and FTD-MAPT genotypes); Bruker ultrafleXtreme MALDI MS, Mascot search
row,Molecule,binding
1,AGAP1 (from UniProt Q9UPQ3 1-857),binds
2,AGAP3 (from UniProt Q96P47 1-875),binds
3,MAP1,binds
4,kinesin KIF2A (from UniProt O00139 1-706),binds
5,B1,binds
6,B2,binds
